Here are results for three compounds from PubChem BioAssay AID328 (DTP/NCI, 2004).

The test deals with BDF1 mice, P388 leukemia ip, median survival T/C. Put plainly: NCI In Vivo Anticancer Drug Screen. Data for tumor model P388 Leukemia (intraperitoneal) in B6D2F1 (BDF1) mice. The settings on record: T/C endpoint: median survival time, higher T/C = longer survival. How it is done: The antitumor activity of compounds was measured in mice bearing transplantable tumors. Survival or tumor size were measured and the results are expressed as the measurement made in the treated group (T) divided by the measurement made in the vehicle treated control group (C). The tumor model used in this assay is P388 Leukemia (intraperitoneal) in B6D2F1 (BDF1) mice

Where [1] appears, read: dose: 0.03 mg/kg/injection, schedule: Q04DX003 (ip), vehicle: saline.
Setting [2] is: dose: 4.13 mg/kg/injection, schedule: Q01DX009 (ip), vehicle: saline.
The mark [3] stands for this setting: dose: 8.25 mg/kg/injection, schedule: Q01DX009 (ip), vehicle: saline.
The mark [4] stands for this setting: dose: 16.5 mg/kg/injection, schedule: Q01DX009 (ip), vehicle: saline.

The list shows only some results of the screen, not a fair sample: it gathers some chemical classes. Other doses and runs of a compound may be missing. T/C gives the treated animals as a percentage of the vehicle group. Some entries give survivors of the animals treated and no T/C: the source holds a T/C of zero for them, seemingly a mark for toxic or unscored doses. Some survivor counts are full or nearly so, which does not show that the dose was tolerated: the source hardly ever lists a survival T/C far under the control, and the zero likely stands for such cases as well. Survivors were counted at the toxicity check, usually on the fifth day, unless a day is given; later deaths do not show. Schedules are NCI's codes, taken here to give the interval after Q, in days (D) or hours (H), and the number of doses after X. For survival time, this PubChem deposit counts one and a half times the control or more as active, and values a quarter to a half above the control carry no call in these data; other NCI protocols may use other cut-offs. Some doses were run more than once; the results are listed from low to high. Some T/C values are marked as having no survivor count here; that says nothing about deaths at the dose. Some T/C values carry the count of animals alive at the toxicity check (mostly the fifth day); without a count or a note in brackets, all were alive then.

Regarding `CN1CC1C(C)(C)C.O=[N+]([O-])c1cc([N+](=O)[O-])c(O)c([N+](=O)[O-])c1`, the T/C is 95 % of control [survivor count not shown] (dose: 50.0 mg/kg/injection, schedule: Q01DX009 (ip), vehicle: Klucel (hydroxypropylcellulose) (HPC)); 100 % of control [survivor count not shown] (dose: 100.0 mg/kg/injection, schedule: Q01DX009 (ip), vehicle: Klucel (hydroxypropylcellulose) (HPC)); 100 % of control [survivor count not shown] (dose: 100.0 mg/kg/injection, schedule: Q04DX003 (ip), vehicle: Klucel (hydroxypropylcellulose) (HPC)); 105 % of control [survivor count not shown] (dose: 200.0 mg/kg/injection, schedule: Q01DX009 (ip), vehicle: Klucel (hydroxypropylcellulose) (HPC)); 105 % of control [survivor count not shown] (dose: 200.0 mg/kg/injection, schedule: Q04DX003 (ip), vehicle: Klucel (hydroxypropylcellulose) (HPC)).
Consider `O[C@H](CNCCBr)[C@@H](O)CNCCBr`, for which the T/C by setting is: (dose: 0.02 mg/kg/injection, schedule: Q04DX003 (ip), vehicle: saline) 109 and 118 % of control; under setting [1], 118 % of control; (dose: 0.04 mg/kg/injection, schedule: Q01DX009 (ip), vehicle: saline) 147 % of control; (dose: 0.06 mg/kg/injection, schedule: Q04DX003 (ip), vehicle: saline) 263 % of control; (dose: 0.07 mg/kg/injection, schedule: Q01DX009 (ip), vehicle: saline) 150 % of control; (dose: 0.09 mg/kg/injection, schedule: Q04DX003 (ip), vehicle: saline) 272 % of control. The T/C is, setting by setting: (dose: 0.22 mg/kg/injection, schedule: Q04DX003 (ip), vehicle: saline) 185 % of control; (dose: 0.27 mg/kg/injection, schedule: Q01DX009 (ip), vehicle: saline) 197 % of control; (dose: 0.34 mg/kg/injection, schedule: Q04DX003 (ip), vehicle: saline) 220 % of control; (dose: 0.4 mg/kg/injection, schedule: Q01DX009 (ip), vehicle: saline) 235 % of control; (dose: 0.52 mg/kg/injection, schedule: Q04DX003 (ip), vehicle: saline) 129 % of control; (dose: 0.62 mg/kg/injection, schedule: Q01DX009 (ip), vehicle: saline) 250 % of control. Also, the T/C runs as follows: (dose: 0.79 mg/kg/injection, schedule: Q04DX003 (ip), vehicle: saline) 179 % of control; (dose: 0.9 mg/kg/injection, schedule: Q04DX003 (ip), vehicle: saline) 141 % of control; (dose: 1.25 mg/kg/injection, schedule: Q01DX009 (ip), vehicle: saline) 266 % of control; (dose: 1.4 mg/kg/injection, schedule: Q04DX003 (ip), vehicle: saline) 187 % of control; (dose: 2.5 mg/kg/injection, schedule: Q01DX009 (ip), vehicle: saline) 266 % of control; (dose: 5.0 mg/kg/injection, schedule: Q01DX009 (ip), vehicle: saline) 116 % of control. In addition, the T/C was 300 % of control (dose: 6.6 mg/kg/injection, schedule: Q04DX003 (ip), vehicle: saline); 87 % of control (dose: 10.0 mg/kg/injection, schedule: Q01DX009 (ip), vehicle: saline); 177 and 300 % of control (dose: 10.0 mg/kg/injection, schedule: Q04DX003 (ip), vehicle: saline); 200 % of control (dose: 15.0 mg/kg/injection, schedule: Q04DX003 (ip), vehicle: saline); 90 % of control [5 of 6 alive] (dose: 20.0 mg/kg/injection, schedule: Q04DX003 (ip), vehicle: saline). For the same compound, the survivor count under setting [1] is listed as 6 of 6; the survivor count (dose: 0.11 mg/kg/injection, schedule: Q01DX009 (ip), vehicle: saline) is reported as 0 of 6; the survivor count (dose: 0.17 mg/kg/injection, schedule: Q01DX009 (ip), vehicle: saline) is 0 of 6; the survivor count (dose: 20.0 mg/kg/injection, schedule: Q01DX009 (ip), vehicle: saline) is listed as 5 of 6; the survivor count (dose: 40.0 mg/kg/injection, schedule: Q04DX003 (ip), vehicle: saline) is recorded as 2 of 6.
As for `O[C@H](CNCCCl)[C@@H](O)CNCCCl`, the T/C runs as follows: (dose: 2.2 mg/kg/injection, schedule: Q04DX003 (ip), vehicle: saline) 127 % of control; (dose: 3.3 mg/kg/injection, schedule: Q04DX003 (ip), vehicle: saline) 150 % of control; under setting [2], 245 % of control; (dose: 5.0 mg/kg/injection, schedule: Q04DX003 (ip), vehicle: saline) 181 % of control; (dose: 5.5 mg/kg/injection, schedule: Q01DX009 (ip), vehicle: saline) 218 % of control; (dose: 5.56 mg/kg/injection, schedule: Q04DX003 (ip), vehicle: saline) 172 % of control. Besides, the T/C by setting is: (dose: 7.5 mg/kg/injection, schedule: Q04DX003 (ip), vehicle: saline) 186 % of control; under setting [3], 272 % of control; (dose: 8.3 mg/kg/injection, schedule: Q01DX009 (ip), vehicle: saline) 195 % of control; (dose: 8.33 mg/kg/injection, schedule: Q04DX003 (ip), vehicle: saline) 200 % of control; (dose: 12.5 mg/kg/injection, schedule: Q01DX009 (ip), vehicle: saline) 222 % of control; (dose: 12.5 mg/kg/injection, schedule: Q04DX003 (ip), vehicle: saline) 218 and 250 % of control. The T/C runs as follows: under setting [4], 272 % of control; (dose: 18.7 mg/kg/injection, schedule: Q01DX009 (ip), vehicle: saline) 118 % of control; (dose: 18.7 mg/kg/injection, schedule: Q04DX003 (ip), vehicle: saline) 263 % of control; (dose: 25.0 mg/kg/injection, schedule: Q04DX003 (ip), vehicle: saline) 277 % of control; (dose: 50.0 mg/kg/injection, schedule: Q04DX003 (ip), vehicle: saline) 100 and 218 % of control; (dose: 100.0 mg/kg/injection, schedule: Q04DX003 (ip), vehicle: saline) 90 % of control. For the same compound, the survivor count is reported as 6 of 6 under setting [2]; 6 of 6 under setting [3]; 6 of 6 under setting [4]; 4 of 6 (dose: 200.0 mg/kg/injection, schedule: Q04DX003 (ip), vehicle: saline).
